The values below come from patent US20240366722A1 (ACCELERON PHARMA, published 2024).

Chains of the proteins cited; added tags and fusions are not shown. Lines headed by an entry give the natural chain unless they say otherwise; changes in a name come on top. Residues count along the entry.
UniProt P22004, residues 382-513: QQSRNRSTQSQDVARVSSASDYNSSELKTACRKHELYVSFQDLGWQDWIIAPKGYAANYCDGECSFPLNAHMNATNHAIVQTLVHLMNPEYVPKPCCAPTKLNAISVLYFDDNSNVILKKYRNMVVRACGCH
UniProt P27037: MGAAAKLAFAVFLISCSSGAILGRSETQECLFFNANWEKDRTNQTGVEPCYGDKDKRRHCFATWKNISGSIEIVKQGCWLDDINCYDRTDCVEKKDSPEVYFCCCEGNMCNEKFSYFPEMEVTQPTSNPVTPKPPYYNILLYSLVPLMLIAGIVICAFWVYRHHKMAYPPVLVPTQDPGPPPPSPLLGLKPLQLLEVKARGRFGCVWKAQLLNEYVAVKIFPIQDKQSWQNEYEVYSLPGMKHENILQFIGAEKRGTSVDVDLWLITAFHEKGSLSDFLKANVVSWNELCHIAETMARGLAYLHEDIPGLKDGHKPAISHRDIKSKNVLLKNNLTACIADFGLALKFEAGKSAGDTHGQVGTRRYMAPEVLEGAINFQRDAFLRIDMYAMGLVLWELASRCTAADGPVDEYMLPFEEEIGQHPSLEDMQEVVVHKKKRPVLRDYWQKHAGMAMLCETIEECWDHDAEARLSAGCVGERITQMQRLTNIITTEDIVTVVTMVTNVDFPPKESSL

Residue numbers refer to the chain shown, from its start. Names and notes keep the numbering of the source. Results are given in words; binding and its absence hold for the method and conditions named. Some entries that bind do so weakly or less than the wild type. For part of these data: Tags and fused reporters may be left off the sequences shown.

For experiment [1], the target named is T1, GDF8 (UniProt O14793).
T1 sequence (looked up): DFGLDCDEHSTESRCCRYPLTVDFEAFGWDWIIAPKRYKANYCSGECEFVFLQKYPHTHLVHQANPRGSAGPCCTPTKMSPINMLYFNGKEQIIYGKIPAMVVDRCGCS
The experiment in a line: similar Biacore binding assay.

The target in experiment [2] is BMP6 (UniProt P22004). In words: similar Biacore binding assay.
Experiment [3] concerns the target T2, activin B (UniProt P09529 293-407).
T2 sequence (looked up): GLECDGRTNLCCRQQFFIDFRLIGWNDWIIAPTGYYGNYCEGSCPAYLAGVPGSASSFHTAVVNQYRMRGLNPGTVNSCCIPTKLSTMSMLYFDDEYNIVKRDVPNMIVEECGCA
In words: similar Biacore binding assay.

The target in experiment [4] is T3, BMP10 (UniProt O95393).
T3 sequence (looked up): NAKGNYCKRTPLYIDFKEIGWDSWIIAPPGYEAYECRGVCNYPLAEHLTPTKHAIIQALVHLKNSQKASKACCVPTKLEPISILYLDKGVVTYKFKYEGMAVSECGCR
In words: similar Biacore binding assay.

The target in experiment [5] is T4, GDF11 (UniProt O95390 299-407).
T4 sequence (looked up): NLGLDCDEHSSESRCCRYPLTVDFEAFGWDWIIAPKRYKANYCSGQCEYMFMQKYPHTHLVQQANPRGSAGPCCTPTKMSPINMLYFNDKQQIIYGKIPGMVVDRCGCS
The experiment in a line: Biacore, ligand amine-coupled to CM5 chip, Fc fusion flowed.

For experiment [6], the target named is T4, GDF11. The experiment in a line: Biacore, ligand coupled to chip, receptor-Fc flowed.

Turning to “ActRIIA-mFc (from UniProt P27037 21-135) (Fc fusion)”, the binding entry in experiment [1], in experiment [2], in experiment [3], in experiment [4] and in experiment [5] was “binds” each time.

B1: Soluble ActRIIB-Fc variant K74A (Table 12) (Fc fusion, UniProt Q13705 19-119, looked up, not shown: a dimerising Fc or GST)
chain: SGRGEAETRECIYYNANWELERTNQSGLERCEGEQDKRLHCYASWANSSGTIELVAKGCWLDDFNCYDRQECVATEENPQVYFCCCEGNFCNERFTHLPEA
For B1, the binding entry in experiment [6] is “binds”.

B2: Soluble ActRIIB-Fc WT (64A) (Fc fusion, UniProt Q13705 19-119, looked up, not shown: a dimerising Fc or GST)
chain: B1 chain with A56K
Take B2: the binding result in experiment [6] is given as “binds”.

B3: Soluble ActRIIB-Fc variant R40A (Fc fusion, UniProt Q13705 19-119, looked up, not shown: a dimerising Fc or GST)
chain: B1 chain with R22A, A56K
In the case of B3, the binding result in experiment [6] is listed as “binds”.

B4: Soluble ActRIIB-Fc variant F82A (Fc fusion, UniProt Q13705 19-119, looked up, not shown: a dimerising Fc or GST)
chain: B1 chain with A56K, F64A
Take B4: in experiment [6], the binding entry is listed as “binds”.
